Experimental data published in publication PMC10750274.
No constants are given. Whether binding was seen depends on the method and setting. In cells and extracts the contact can be indirect. Some results given as binding are weak or reduced against the parent protein; the word gives no strength.

Amino acid sequences for entries named in this document (tags omitted).
UniProt P05556: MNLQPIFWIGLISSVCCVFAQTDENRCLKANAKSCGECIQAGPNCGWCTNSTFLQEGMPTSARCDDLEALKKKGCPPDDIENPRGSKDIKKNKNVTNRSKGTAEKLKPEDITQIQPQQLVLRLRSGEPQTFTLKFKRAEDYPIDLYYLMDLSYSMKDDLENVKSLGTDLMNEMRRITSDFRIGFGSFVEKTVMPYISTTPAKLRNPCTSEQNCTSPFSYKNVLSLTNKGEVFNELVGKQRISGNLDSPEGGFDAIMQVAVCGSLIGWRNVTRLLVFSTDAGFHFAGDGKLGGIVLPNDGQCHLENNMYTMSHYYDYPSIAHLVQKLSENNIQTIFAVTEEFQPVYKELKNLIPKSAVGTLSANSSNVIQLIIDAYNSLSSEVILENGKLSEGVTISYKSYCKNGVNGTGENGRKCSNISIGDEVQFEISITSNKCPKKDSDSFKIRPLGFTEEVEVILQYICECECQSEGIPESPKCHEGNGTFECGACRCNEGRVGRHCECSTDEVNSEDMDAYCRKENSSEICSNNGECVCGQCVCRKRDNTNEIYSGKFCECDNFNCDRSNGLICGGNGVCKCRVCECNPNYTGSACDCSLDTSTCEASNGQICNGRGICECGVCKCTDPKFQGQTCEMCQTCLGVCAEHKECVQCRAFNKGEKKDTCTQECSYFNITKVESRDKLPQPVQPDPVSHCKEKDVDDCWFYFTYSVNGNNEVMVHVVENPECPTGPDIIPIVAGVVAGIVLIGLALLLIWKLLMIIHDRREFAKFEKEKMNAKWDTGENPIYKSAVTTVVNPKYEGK

Molecular target: integrin β1 (human (endogenous in AN3CA)) (UniProt P05556)
Assay: co-IP; AN3CA cells treated with 150 ng/ml rhNTN4 for 1 hour; whole cell lysate (1 mg total protein) immunoprecipitated with anti-His or anti-ITGB1 antibody (2 μg) or normal rabbit IgG overnight at 4 °C, protein G Mag Sepharose beads; Western blot for rhNTN4 and integrin β1; only the binder purified

B1: Recombinant human NTN4 protein (netrin4) (ligand, UniProt Q9HB63 19-628)
chain: GLSGVAGVSSRCEKACNPRMGNLALGRKLWADTTCGQNATELYCFYSENTDLTCRQPKCDKCNAAYPHLAHLPSAMADSSFRFPRTWWQSAEDVHREKIQLDLEAEFYFTHLIVMFKSPRPAAMVLDRSQDFGKTWKPYKYFATNCSATFGLEDDVVKKGAICTSKYSSPFPCTGGEVIFKALSPPYDTENPYSAKVQEQLKITNLRVQLLKRQSCPCQRNDLNEEPQHFTHYAIYDFIVKGSCFCNGHADQCIPVHGFRPVKAPGTFHMVHGKCMCKHNTAGSHCQHCAPLYNDRPWEAADGKTGAPNECRTCKCNGHADTCHFDVNVWEASGNRSGGVCDDCQHNTEGQYCQRCKPGFYRDLRRPFSAPDACKPCSCHPVGSAVLPANSVTFCDPSNGDCPCKPGVAGRRCDRCMVGYWGFGDYGCRPCDCAGSCDPITGDCISSHTDIDWYHEVPDFRPVHNKSEPAWEWEDAQGFSALLHSGKCECKEQTLGNAKAFCGMKYSYVLKIKILSAHDKGTHVEVNVKIKKVLKSTKLKIFRGKRTLYPESWTDRGCTCPILNPGLEYLVAGHEDIRTGKLIVNMKSFVQHWKPSLGRKVMDILKRECK
- binding: binds
